# Counter-ions that a name gives are not always drawn. This is one part of the list. No stated cut-off is given here; in the data, active = 0.7 or more and inactive = the rest. Most values come without repeats; read them as rough.
# Test system: MiaPaCa-2 CLSA-25
# Test: cell death relative to DMSO vehicle (fraction); higher = more cytotoxic
# Conditions: 5 µM; treatment time 48 h; medium cystine 25 µM
row,SMILES,cell death
1,COc1ccc(C2(CNC(=O)c3ccc(NC(=O)c4ccco4)cc3)CCOCC2)cc1,inactive: 0.207
2,O=c1c(O)c(-c2ccccc2)oc2cc(O)cc(O)c12 [Galangin],inactive: 0.138
3,Cc1ccc(C)c(OCCCC(C)(C)C(=O)O)c1 [Gemfibrozil],active: 0.776
4,NS(=O)(=O)c1cc2c(cc1Cl)N=C(CSCc1ccccc1)NS2(=O)=O [Benzthiazide],inactive: 0.129
5,CC(=O)OCC(=O)[C@@]12OC3(CCCC3)O[C@@H]1C[C@H]1[C@@H]3CCC4=CC(=O)C=C[C@]4(C)[C@@]3(F)[C@@H](O)C[C@@]12C [Amcinonide],inactive: 0.157
6,CC[C@H](C)C(=O)O[C@H]1C[C@H](O)C=C2C=C[C@H](C)[C@H](CC[C@@H](O)C[C@@H](O)CC(=O)O)[C@H]21 [Pravastatin sodium],inactive: 0.281
7,CCOC(=O)[C@H](CCc1ccccc1)N[C@@H](C)C(=O)N1[C@H](C(=O)O)C[C@@H]2CCC[C@@H]21 [Ramipril],inactive: 0.0326
8,O=c1cc(-c2ccc(O)cc2)oc2cc(O)cc(O)c12 [Apigenin],inactive: 0.326
9,CCC(=O)Nc1cccc(Oc2nc(Nc3ccc(N4CCN(C)CC4)cc3OC)ncc2Cl)c1,inactive: 0.183
10,CCN(CC)C(=S)SSC(=S)N(CC)CC [Disulfiram],active: 0.805
11,CN1CCC(=C2c3ccccc3CC(=O)c3sccc32)CC1 [Ketotifen fumarate],inactive: 0.148
12,CN(CCOc1ccc(CC2SC(=O)NC2=O)cc1)c1ccccn1 (configuration not stated) [Rosiglitazone maleate],inactive: 0.114

# Another view of part of the listing above.
row	SMILES	cell death
9	CCC(=O)Nc1cccc(Oc2nc(Nc3ccc(N4CCN(C)CC4)cc3OC)ncc2Cl)c1	inactive: 0.183
10	CCN(CC)C(=S)SSC(=S)N(CC)CC [Disulfiram]	active: 0.805

# From the supplement of paper PMC12872613
